The text below walks through data of patent US20150024955A1, “Methods of Identifying Modulators of Dephosphorylation of Histone Deacetylase” (THE J. DAVID GLADSTONE INSTITUTES, priority 2006, published 2015).

Sequences of proteins named here, by UniProt entry; tags and fusion partners are left off.
UniProt P62259: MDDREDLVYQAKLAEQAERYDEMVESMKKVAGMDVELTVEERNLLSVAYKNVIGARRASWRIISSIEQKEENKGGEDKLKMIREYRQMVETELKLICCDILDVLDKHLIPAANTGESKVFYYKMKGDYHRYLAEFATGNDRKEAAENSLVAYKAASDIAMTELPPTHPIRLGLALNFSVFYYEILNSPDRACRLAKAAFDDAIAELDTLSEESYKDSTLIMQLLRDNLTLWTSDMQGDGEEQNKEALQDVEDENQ

Assay [1] concerns the target T1, FLAG-tagged human HDAC7 (human) (UniProt Q8WUI4).
T1 sequence (looked up): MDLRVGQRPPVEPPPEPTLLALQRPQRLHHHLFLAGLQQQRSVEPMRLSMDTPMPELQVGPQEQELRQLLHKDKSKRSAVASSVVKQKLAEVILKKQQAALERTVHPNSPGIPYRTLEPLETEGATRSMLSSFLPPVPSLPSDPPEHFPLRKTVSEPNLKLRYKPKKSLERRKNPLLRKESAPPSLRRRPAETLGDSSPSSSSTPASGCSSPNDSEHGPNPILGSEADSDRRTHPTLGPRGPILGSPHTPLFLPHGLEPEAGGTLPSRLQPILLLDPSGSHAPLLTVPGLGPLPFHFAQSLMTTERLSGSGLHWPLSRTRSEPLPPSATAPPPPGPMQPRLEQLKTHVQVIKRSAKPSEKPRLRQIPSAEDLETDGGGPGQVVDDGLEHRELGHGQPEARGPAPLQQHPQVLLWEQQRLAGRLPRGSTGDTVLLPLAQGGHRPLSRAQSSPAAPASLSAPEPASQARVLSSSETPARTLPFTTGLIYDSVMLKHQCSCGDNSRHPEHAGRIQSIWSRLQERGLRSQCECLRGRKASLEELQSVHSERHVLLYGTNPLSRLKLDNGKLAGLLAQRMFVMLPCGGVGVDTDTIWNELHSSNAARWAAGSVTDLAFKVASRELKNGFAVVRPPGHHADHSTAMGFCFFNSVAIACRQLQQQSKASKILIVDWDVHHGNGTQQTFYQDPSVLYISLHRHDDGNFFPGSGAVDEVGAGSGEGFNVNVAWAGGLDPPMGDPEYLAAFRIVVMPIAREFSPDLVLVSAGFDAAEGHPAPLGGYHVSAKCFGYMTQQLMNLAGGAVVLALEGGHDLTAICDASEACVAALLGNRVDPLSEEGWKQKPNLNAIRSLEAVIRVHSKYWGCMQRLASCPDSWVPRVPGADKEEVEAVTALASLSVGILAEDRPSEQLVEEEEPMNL
The assay can be described thus: anti-FLAG immunoprecipitation from DO11.10-HDAC7-Flag cells, SDS-PAGE, mass spectrometry.

Assay [2] has as its target T1, FLAG-tagged human HDAC7 (human). Nature of the assay: anti-FLAG M2 immunoprecipitation from DO11.10-HDAC7-Flag cells, Coomassie gel, mass spectrometry.

Results are given in words; binding and its absence hold for the method and conditions named. Binding seen in cells or lysates may run through a third protein. These calls come from enrichment with a bait or labelling near it, and not all partners need be listed. Where a sequence is shown, tags or fusion partners need not be part of it.

Take “14-3-3 protein epsilon (from UniProt P62259 1-255)”: the binding result in assay [1] and in assay [2] was “binds” in each case.
